Results published in the supplement of paper PMC9233669.
This sample is rich in variants without activity.

What was measured:
[1] = tested on: biotinyl-Met-oxazolone; assay: self-aminoacylation, catalytic enhancement (BMO) (fold over background); higher = more active; k-Seq, kA / k0A0; sequences stand for … in GGGAAUGGAUCCACAUCUACGAAUUC…UUCACUGCAGACUUGACGAAGCUG
Summary of the method: (§1)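 Working in 50 μL HEPES/NaCl/KCl/MgCl2/CaCl2 buffer with 5% acetonitrile at pH 6.9–7.0, mutagenized RNA pools (0.43 μM; 21-nt variable region) were reacted with 2–1250 μM of each biotinyl-aminoacyl-oxazolone for 90 minutes at room temperature. Streptavidin capture followed, with quantification by triplicate qPCR and Illumina sequencing. Catalytic enhancement is reported as median kA over the uncatalyzed rate, the low-activity peak of a bimodal Gaussian fit to the data.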

[2] = tested on: biotinyl-Ile-oxazolone; assay: self-aminoacylation, catalytic enhancement (BIO) (fold over background); higher = more active; k-Seq, kA / k0A0; sequences stand for … in GGGAAUGGAUCCACAUCUACGAAUUC…UUCACUGCAGACUUGACGAAGCUG
Summary of the method: as §1

[3] = tested on: biotinyl-Leu-oxazolone; assay: self-aminoacylation, catalytic enhancement (BLO) (fold over background); higher = more active; k-Seq, kA / k0A0; sequences stand for … in GGGAAUGGAUCCACAUCUACGAAUUC…UUCACUGCAGACUUGACGAAGCUG
Summary of the method: as §1

[4] = tested on: biotinyl-Val-oxazolone; assay: self-aminoacylation, catalytic enhancement (BVO) (fold over background); higher = more active; k-Seq, kA / k0A0; sequences stand for … in GGGAAUGGAUCCACAUCUACGAAUUC…UUCACUGCAGACUUGACGAAGCUG
Summary of the method: as §1

Sequence	self-aminoacylation [1]	self-aminoacylation [2]	self-aminoacylation [3]	self-aminoacylation [4]
AUGUCUGCUAAUAGUCGCAAG [Fam3.1 aminoacylation ribozyme variant]	2.25	1.91	1.74	1.56
AUUACACUGGUCACCGAGUGA [Fam2.1 aminoacylation ribozyme variant]	5.29	2.95	5.41	2.91
AUUACCCUGGGCAUCGGGUGA [Fam2.1 aminoacylation ribozyme variant]	10.4	5.62	11.5	6.68
AUUACCCUGGUCAUCUUGUGA [Fam2.1 aminoacylation ribozyme variant]	4.75	2.27	4.41	2.33
AUUACCCUGGUCCCCGAGUGA [Fam2.1 aminoacylation ribozyme variant]	15.2	6.57	15.6	8.55
AUUAGCCUGGUCAUCGAGGGA [Fam2.1 aminoacylation ribozyme variant]	1.49	2.08	2.52	2.4
AUUCACAUAGGGCAUCGGGUG [Fam2.2 aminoacylation ribozyme variant]	4.4	3.83	3.62	3.39
AUUCACCAAGGUCAUCCGGUG [Fam2.2 aminoacylation ribozyme variant]	7.8	5.51	11.4	4.96
AUUCACCUAGGACAUCGAGUG [Fam2.2 aminoacylation ribozyme variant]	1.52	1.02	1.81	1.12
AUUCACCUAGGUCAUCCGGCG [Fam2.2 aminoacylation ribozyme variant]	3.55	3.31	3.69	4.01
AUUCACCUAGGUUAUCGGGUU [Fam2.2 aminoacylation ribozyme variant]	1.31	1.36	1.56	1.61
AUUCACCUCGGUCAUCAGGUG [Fam2.2 aminoacylation ribozyme variant]	1.25	1.04	1.29	1.42
AUUCAUCUAGGUAAUCGGGUG [Fam2.2 aminoacylation ribozyme variant]	3.07	1.95	4.09	1.73
CAAAUUCAAACAAUCGGUCUG [Fam1A.1 aminoacylation ribozyme variant]	0.825	0.809	0.945	0.879
CAACUUCAAACAAUCUGUCUG [Fam1A.1 aminoacylation ribozyme variant]	0.817	1.1	0.976	0.948
CAGUUUGAUAAUAGUCGCAAG [Fam3.1 aminoacylation ribozyme variant]	1.32	1.4	1.34	1.54
CCAAUCUUCAAGCAAUCGGUC [Fam1B.1 aminoacylation ribozyme variant]	0.942	1.14	1.33	1.06
CCACAAUUCAACCAAUCGGUC [Fam1B.1 aminoacylation ribozyme variant]	1.5	1.35	1.42	1.35
CCACAAUUCAAUCAAUCGGUC [Fam1B.1 aminoacylation ribozyme variant]	0.891	1.07	0.977	0.998
CCACACUUCAAACAAUCGGCC [Fam1B.1 aminoacylation ribozyme variant]	1.96	1.77	1.61	2.19
CCACACUUCAAACGAUCGGUC [Fam1B.1 aminoacylation ribozyme variant]	1.07	0.92	1.14	1.16

Sequence	self-aminoacylation [1]	self-aminoacylation [2]	self-aminoacylation [3]	self-aminoacylation [4]
CCACACUUCAAAUAAUCGGUC [Fam1B.1 aminoacylation ribozyme variant]	0.769	0.924	1.09	0.926
CCACACUUCAACAAAUCGGUC [Fam1B.1 aminoacylation ribozyme variant]	0.808	1.08	1.25	1.06
CCACACUUCAAGGAAUCGGUC [Fam1B.1 aminoacylation ribozyme variant]	0.903	0.936	1.11	0.971
CCACACUUCAAUAAAUCGGUC [Fam1B.1 aminoacylation ribozyme variant]	0.626	0.714	0.695	0.706
CCACAUUUCAAGCAAUCGGUU [Fam1B.1 aminoacylation ribozyme variant]	1.62	1.59	1.56	1.71
CCACUCCAAACAAUCGGUCUG [Fam1A.1 aminoacylation ribozyme variant]	1.13	1.11	1.09	1.22
CCACUCUUCAAGCAAUCGGUC [Fam1B.1 aminoacylation ribozyme variant]	0.921	0.978	1.2	1.12
CCACUUAAAACAAUCGGUCUG [Fam1A.1 aminoacylation ribozyme variant]	1.44	1.11	1.05	1.13
CCAUACUUCAAGCAAUCGGUC [Fam1B.1 aminoacylation ribozyme variant]	0.921	1.07	1.14	1.11
CCCCACUUCUAGCAAUCGGUC [Fam1B.1 aminoacylation ribozyme variant]	1.06	1.26	1.01	1.53
CGACACUUCAAGCAAACGGUC [Fam1B.1 aminoacylation ribozyme variant]	0.687	0.814	0.537	0.76
CGACACUUCAAGGAAUCGGUC [Fam1B.1 aminoacylation ribozyme variant]	1.42	2.39	1.89	1.73
CGACUUCAAACAAUCGGACUG [Fam1A.1 aminoacylation ribozyme variant]	1.04	1.28	1.15	0.956
CGAGACUUCAAGCAAUCGGUC [Fam1B.1 aminoacylation ribozyme variant]	1.39	1.29	1.12	1.45
CGAGUUCAAACAAUCGGUCUG [Fam1A.1 aminoacylation ribozyme variant]	1.07	1.15	1.25	1.04
CUAAUUCAAACAAUCGGCCUG [Fam1A.1 aminoacylation ribozyme variant]	1.07	1.15	1.18	1.04
CUACACUUAAAGCAAUCGGUC [Fam1B.1 aminoacylation ribozyme variant]	0.713	0.786	0.696	0.738
CUACACUUCAACCAAUCGGUC [Fam1B.1 aminoacylation ribozyme variant]	1.36	1.28	1.94	1.19
CUACUCCAACCAAUCGGUCUG [Fam1A.1 aminoacylation ribozyme variant]	0.74	0.623	0.855	0.706
CUACUUCAAACAAACGGUCGG [Fam1A.1 aminoacylation ribozyme variant]	0.726	1.05	0.809	0.944
CUACUUCAAACAAUCAGUCGG [Fam1A.1 aminoacylation ribozyme variant]	1.29	1.32	1.55	1

Sequence	self-aminoacylation [1]	self-aminoacylation [2]	self-aminoacylation [3]	self-aminoacylation [4]
CUACUUCAAACAAUCAGUCUG [Fam1A.1 aminoacylation ribozyme variant]	0.831	0.869	1.08	0.889
CUACUUCAAACAAUCGGUCUA [Fam1A.1 aminoacylation ribozyme variant]	0.774	0.896	0.956	0.936
CUACUUCAAACAAUCGGUUUA [Fam1A.1 aminoacylation ribozyme variant]	0.889	0.94	0.759	0.832
CUACUUCAAACAAUCUCUCUG [Fam1A.1 aminoacylation ribozyme variant]	0.648	0.705	0.771	0.823
CUACUUCAAACGAUCCGUCUG [Fam1A.1 aminoacylation ribozyme variant]	0.958	0.783	0.787	0.808
CUACUUCAAAUAAUCGGUAUG [Fam1A.1 aminoacylation ribozyme variant]	0.571	0.66	0.697	0.681
CUACUUCAACAAAUCGGUCUG [Fam1A.1 aminoacylation ribozyme variant]	0.632	0.856	1.08	0.844
CUACUUCAAUGAAUCGGUCUG [Fam1A.1 aminoacylation ribozyme variant]	0.938	0.853	0.96	0.817
CUACUUCAGACAAUCGGCCUG [Fam1A.1 aminoacylation ribozyme variant]	1.5	1.54	1.58	1.56
CUACUUCAUACAAUCGUUCUG [Fam1A.1 aminoacylation ribozyme variant]	0.476	0.535	0.477	0.655
CUAGUUCAAACAAUCAGUCUG [Fam1A.1 aminoacylation ribozyme variant]	0.742	0.869	0.756	0.784
CUCCCUCAAACAAUCGGUCUG [Fam1A.1 aminoacylation ribozyme variant]	1.09	1.29	1.41	1.43
CUCCUUCAAUCAAUCGGUCUG [Fam1A.1 aminoacylation ribozyme variant]	0.88	0.989	1.58	0.939
CUGCGUCAAACAAUCGGUCUG [Fam1A.1 aminoacylation ribozyme variant]	1.36	1.13	1.36	1.5
CUGCUUCAAACAAUCGAUCUG [Fam1A.1 aminoacylation ribozyme variant]	0.615	0.66	0.649	0.638
CUGCUUCAAACAAUCGGUCCG [Fam1A.1 aminoacylation ribozyme variant]	1.34	1.35	2.38	1.38
CUGCUUCAAAUAAUCGGUCUG [Fam1A.1 aminoacylation ribozyme variant]	1.14	1.11	1.53	0.939
CUUACCCUGGUCAACGAGUGA [Fam2.1 aminoacylation ribozyme variant]	5.06	2.56	5.08	3.29
CUUCUUCAAAUAAUCGGUCUG [Fam1A.1 aminoacylation ribozyme variant]	0.979	0.947	1.05	0.9
GUACUUCAAGCAAUCGGUCUG [Fam1A.1 aminoacylation ribozyme variant]	1.1	1.08	1.23	1.17
GUGUUUGCUAAUAGUCGCAAG [Fam3.1 aminoacylation ribozyme variant]	1.8	1.99	1.71	1.72
